In paper PMC3762332:
Construct, isoform or probe ends are uncertain for at least one entry. For some of these results: Tags and fusion partners may be left off the protein sequences shown.

Sequences of proteins named here, by UniProt entry; tags and fusion partners are left off. A change or cut given only in a name is not applied to a line headed by its entry.
UniProt P05549: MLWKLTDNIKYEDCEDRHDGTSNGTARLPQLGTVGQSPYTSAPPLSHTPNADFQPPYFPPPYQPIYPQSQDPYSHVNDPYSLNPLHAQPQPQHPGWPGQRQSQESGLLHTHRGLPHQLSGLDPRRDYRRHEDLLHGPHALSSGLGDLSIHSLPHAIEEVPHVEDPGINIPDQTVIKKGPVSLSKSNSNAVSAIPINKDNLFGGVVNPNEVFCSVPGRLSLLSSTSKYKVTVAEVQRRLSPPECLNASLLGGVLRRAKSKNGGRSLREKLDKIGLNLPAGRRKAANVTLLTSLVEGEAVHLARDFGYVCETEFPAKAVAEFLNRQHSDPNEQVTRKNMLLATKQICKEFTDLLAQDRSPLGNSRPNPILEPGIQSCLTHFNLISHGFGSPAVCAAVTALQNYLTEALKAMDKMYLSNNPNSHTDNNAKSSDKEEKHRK
UniProt P43694: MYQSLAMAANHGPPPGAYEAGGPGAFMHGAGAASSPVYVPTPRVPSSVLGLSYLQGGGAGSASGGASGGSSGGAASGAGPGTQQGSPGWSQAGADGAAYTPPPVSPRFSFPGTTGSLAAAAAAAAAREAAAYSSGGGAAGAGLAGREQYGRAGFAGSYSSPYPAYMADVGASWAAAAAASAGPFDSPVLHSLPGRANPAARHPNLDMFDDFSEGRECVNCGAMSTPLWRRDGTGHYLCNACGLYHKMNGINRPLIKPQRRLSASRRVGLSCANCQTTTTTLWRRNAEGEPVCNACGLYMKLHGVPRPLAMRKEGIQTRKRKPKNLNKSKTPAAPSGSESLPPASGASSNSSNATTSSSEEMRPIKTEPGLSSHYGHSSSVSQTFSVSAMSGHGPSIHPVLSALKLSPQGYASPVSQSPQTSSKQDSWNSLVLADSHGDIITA
UniProt Q9BWM5: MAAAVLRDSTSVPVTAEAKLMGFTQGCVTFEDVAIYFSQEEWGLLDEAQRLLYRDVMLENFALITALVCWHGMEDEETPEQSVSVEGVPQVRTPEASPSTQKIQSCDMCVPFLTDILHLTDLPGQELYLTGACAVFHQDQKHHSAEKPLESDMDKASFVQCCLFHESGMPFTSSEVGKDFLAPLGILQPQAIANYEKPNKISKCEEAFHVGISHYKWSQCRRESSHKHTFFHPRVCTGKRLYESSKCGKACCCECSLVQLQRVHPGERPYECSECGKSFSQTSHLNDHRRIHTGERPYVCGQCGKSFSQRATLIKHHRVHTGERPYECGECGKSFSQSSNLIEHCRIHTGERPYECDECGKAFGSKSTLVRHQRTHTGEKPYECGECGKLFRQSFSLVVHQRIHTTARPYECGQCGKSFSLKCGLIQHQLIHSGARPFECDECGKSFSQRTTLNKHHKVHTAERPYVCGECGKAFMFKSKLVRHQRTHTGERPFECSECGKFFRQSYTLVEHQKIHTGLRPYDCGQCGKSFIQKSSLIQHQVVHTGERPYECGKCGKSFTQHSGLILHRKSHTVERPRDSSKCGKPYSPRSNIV
UniProt Q8IW36: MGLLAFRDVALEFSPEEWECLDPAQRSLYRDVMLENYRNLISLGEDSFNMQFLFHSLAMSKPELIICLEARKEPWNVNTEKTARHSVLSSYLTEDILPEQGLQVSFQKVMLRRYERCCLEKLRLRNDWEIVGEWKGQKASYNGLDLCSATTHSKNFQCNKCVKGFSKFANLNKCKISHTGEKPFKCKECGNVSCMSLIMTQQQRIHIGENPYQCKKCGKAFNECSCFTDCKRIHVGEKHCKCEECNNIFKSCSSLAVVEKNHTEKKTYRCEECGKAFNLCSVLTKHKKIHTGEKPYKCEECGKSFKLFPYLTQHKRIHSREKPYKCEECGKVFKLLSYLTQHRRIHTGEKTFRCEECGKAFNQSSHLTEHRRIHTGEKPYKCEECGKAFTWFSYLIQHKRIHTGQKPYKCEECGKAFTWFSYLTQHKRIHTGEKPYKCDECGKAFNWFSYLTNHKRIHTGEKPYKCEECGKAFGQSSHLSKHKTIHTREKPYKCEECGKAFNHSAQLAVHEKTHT
UniProt Q8NC26: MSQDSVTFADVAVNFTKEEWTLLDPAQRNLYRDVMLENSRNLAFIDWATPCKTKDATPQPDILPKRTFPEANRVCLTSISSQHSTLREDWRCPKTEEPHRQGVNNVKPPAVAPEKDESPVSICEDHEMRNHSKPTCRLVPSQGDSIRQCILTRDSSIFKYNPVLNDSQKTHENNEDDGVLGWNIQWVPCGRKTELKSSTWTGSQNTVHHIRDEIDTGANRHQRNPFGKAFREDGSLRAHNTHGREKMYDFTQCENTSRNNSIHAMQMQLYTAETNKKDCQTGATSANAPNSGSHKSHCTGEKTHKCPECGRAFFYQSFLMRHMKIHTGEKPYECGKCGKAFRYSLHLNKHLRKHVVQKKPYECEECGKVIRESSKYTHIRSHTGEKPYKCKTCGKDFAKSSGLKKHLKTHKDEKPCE
UniProt O00716: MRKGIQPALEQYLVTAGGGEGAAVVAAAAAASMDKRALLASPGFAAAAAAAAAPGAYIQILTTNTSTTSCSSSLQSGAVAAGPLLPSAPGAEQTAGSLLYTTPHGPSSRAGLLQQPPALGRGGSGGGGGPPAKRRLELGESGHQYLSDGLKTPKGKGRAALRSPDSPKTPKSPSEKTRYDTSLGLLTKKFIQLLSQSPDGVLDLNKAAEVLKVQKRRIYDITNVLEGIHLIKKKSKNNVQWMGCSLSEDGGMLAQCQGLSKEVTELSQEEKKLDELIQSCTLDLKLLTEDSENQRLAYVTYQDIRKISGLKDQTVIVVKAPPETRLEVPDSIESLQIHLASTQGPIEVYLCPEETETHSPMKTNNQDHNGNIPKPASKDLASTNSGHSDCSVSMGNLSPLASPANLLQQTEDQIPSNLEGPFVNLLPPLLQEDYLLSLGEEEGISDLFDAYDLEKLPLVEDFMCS
UniProt P37231: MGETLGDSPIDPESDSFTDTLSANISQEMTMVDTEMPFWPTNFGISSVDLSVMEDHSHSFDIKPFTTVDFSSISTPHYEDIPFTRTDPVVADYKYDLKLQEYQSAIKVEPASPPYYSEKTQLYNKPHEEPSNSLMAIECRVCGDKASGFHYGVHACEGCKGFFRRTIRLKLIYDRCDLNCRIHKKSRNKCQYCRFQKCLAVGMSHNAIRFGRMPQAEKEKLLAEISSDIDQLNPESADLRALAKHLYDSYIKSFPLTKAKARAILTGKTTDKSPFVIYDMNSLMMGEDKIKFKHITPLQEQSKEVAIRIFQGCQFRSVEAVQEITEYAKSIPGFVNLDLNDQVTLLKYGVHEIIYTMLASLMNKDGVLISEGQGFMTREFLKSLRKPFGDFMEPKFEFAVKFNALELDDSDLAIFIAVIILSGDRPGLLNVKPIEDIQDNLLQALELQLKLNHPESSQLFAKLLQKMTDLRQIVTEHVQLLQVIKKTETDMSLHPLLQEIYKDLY
UniProt P20719: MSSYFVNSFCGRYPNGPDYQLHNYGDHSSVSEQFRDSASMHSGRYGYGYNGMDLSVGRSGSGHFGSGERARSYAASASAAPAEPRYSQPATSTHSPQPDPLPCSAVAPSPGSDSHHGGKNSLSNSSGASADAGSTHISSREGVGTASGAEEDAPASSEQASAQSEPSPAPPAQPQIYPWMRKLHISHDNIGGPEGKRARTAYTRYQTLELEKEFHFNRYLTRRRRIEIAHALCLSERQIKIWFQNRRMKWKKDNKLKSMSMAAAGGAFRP
UniProt P19793: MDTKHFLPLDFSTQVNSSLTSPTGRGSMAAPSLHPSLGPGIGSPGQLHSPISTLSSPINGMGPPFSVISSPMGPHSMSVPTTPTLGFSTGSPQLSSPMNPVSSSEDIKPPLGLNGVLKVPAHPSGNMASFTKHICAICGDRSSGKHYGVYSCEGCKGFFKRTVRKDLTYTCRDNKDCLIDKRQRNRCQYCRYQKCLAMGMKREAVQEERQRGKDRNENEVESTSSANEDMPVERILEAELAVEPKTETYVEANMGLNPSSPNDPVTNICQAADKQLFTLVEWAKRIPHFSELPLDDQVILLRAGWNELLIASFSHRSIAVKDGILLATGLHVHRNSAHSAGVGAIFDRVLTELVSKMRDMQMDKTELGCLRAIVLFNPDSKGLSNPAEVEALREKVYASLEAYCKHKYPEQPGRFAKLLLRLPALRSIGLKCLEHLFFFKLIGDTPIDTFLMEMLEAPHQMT

Legend:
Test in all cases: protein microarray
Settings in all cases: 10-fold cold unmethylated competitor; 5mC at CpG (SssI, both strands); recombinant protein; protein details: GST (N-terminal); label: Cy5
TFAP2A (Homo sapiens) = TFAP2A (Homo sapiens) (UniProt P05549)
GATA4 (Homo sapiens) = GATA4 (Homo sapiens) (UniProt P43694)
ZNF416 (Homo sapiens) = ZNF416 (Homo sapiens) (UniProt Q9BWM5)
ZNF695 (Homo sapiens) = ZNF695 (Homo sapiens) (UniProt Q8IW36)
ZNF114 (Homo sapiens) = ZNF114 (Homo sapiens) (UniProt Q8NC26)
E2F3 (Homo sapiens) = E2F3 (Homo sapiens) (UniProt O00716)
PPARG (Homo sapiens) = PPARG (Homo sapiens) (UniProt P37231)
NRF1 (Homo sapiens) = biological target: T1, NRF1 (Homo sapiens) (UniProt Q16656)
T1 sequence (looked up, limits assumed): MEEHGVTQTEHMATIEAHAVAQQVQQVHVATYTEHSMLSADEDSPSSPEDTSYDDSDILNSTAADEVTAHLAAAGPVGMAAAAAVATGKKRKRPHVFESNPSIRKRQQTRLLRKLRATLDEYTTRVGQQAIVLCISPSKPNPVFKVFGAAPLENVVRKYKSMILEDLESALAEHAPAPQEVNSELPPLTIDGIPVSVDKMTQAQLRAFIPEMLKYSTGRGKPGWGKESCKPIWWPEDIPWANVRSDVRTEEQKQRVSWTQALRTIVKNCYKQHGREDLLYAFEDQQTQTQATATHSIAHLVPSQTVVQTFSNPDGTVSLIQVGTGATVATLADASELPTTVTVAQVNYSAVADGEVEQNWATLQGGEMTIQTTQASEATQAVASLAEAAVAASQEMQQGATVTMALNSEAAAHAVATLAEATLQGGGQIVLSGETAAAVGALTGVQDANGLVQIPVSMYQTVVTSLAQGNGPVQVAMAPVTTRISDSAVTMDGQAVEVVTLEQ

HOXA5 (Homo sapiens) = HOXA5 (Homo sapiens) (UniProt P20719)
SCAPER (Homo sapiens) = biological target: T2, SCAPER (Homo sapiens) (UniProt Q9BY12)
T2 sequence (looked up, limits assumed): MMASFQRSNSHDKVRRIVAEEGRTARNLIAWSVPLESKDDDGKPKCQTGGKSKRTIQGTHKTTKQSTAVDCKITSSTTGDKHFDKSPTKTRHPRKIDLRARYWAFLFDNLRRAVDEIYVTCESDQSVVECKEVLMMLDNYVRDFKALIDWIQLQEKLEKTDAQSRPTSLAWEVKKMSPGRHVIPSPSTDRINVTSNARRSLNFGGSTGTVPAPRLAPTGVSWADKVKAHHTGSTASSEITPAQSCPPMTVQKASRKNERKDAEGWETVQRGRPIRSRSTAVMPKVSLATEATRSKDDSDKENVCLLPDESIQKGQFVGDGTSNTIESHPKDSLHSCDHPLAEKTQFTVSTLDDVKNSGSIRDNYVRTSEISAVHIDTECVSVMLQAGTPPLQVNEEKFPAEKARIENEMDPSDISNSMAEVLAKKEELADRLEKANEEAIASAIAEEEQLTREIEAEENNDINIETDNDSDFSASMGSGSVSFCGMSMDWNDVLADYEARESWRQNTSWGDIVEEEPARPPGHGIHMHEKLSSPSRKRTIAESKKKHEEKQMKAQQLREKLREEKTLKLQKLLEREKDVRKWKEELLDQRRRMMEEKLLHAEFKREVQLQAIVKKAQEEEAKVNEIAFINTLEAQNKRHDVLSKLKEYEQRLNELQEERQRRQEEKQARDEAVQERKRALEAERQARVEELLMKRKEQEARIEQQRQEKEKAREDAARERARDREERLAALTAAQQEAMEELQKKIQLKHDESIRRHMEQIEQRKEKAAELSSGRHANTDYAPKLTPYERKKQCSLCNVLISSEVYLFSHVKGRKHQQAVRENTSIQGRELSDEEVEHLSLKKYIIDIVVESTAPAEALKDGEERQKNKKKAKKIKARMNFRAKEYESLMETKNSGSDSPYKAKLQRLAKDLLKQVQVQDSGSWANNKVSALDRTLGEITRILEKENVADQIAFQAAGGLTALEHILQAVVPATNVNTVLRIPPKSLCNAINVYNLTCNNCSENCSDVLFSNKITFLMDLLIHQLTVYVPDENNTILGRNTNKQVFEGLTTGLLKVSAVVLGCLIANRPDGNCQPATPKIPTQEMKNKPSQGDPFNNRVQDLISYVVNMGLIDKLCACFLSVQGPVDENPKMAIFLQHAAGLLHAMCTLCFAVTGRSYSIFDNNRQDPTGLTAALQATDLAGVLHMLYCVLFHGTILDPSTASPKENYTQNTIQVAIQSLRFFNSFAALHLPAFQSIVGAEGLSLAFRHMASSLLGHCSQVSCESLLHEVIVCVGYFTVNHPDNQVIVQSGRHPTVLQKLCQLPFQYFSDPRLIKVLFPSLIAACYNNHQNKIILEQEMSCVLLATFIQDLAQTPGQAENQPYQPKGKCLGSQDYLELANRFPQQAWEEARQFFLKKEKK

ZCCHC7 (Homo sapiens) = biological target: T3, ZCCHC7 (Homo sapiens) (UniProt Q8N3Z6)
T3 sequence (looked up, limits assumed): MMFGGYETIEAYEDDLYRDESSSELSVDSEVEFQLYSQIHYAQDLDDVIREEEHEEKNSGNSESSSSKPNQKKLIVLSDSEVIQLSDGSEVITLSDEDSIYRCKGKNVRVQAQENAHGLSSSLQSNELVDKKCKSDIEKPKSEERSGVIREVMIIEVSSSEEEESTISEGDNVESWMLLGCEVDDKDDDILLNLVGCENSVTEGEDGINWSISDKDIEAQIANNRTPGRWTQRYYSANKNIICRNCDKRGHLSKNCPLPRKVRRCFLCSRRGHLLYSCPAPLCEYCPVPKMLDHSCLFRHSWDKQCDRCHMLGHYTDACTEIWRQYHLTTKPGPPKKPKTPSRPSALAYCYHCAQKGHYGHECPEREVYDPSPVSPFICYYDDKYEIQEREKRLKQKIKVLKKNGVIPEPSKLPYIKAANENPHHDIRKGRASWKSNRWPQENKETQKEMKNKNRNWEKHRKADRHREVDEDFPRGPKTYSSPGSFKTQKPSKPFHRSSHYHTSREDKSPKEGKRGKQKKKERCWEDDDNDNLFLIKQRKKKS

BCL3 (Homo sapiens) = biological target: T4, BCL3 (Homo sapiens) (UniProt P20749)
T4 sequence (looked up, limits assumed): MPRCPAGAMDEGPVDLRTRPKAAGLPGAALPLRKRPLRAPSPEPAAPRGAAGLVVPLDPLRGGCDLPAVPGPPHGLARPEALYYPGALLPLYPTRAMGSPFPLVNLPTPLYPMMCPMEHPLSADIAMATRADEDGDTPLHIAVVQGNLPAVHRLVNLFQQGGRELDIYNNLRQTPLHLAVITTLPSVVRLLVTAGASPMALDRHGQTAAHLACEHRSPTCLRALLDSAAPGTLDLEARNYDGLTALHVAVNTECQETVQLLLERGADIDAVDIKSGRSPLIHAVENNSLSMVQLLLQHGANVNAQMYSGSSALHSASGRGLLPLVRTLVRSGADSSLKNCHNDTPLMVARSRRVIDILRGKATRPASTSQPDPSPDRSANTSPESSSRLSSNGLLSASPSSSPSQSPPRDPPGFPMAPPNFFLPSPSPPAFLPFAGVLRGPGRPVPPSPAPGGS

RNF138 (Homo sapiens) = biological target: T5, RNF138 (Homo sapiens) (UniProt Q8WVD3)
T5 sequence (looked up, limits assumed): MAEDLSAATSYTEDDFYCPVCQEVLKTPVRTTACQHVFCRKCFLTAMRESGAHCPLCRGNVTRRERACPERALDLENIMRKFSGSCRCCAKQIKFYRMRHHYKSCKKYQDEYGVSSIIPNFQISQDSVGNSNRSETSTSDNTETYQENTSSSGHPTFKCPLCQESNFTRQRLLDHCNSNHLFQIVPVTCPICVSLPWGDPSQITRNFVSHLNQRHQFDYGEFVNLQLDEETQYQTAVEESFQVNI

RXRA (Homo sapiens) = RXRA (Homo sapiens) (UniProt P19793)

Measured: binding result

ACTTGCGCCAAAACTTGCGCCCCCTATAGTGAGTGCTATTA (double strand) [M252]
binds: TFAP2A (Homo sapiens) | GATA4 (Homo sapiens) | ZNF416 (Homo sapiens) | ZNF695 (Homo sapiens) | ZNF114 (Homo sapiens) | E2F3 (Homo sapiens)

AGGGCGGAAAAGGGCGGCCCTATAGTGAGTGCTATTA (double strand) [M71]
not listed: TFAP2A (Homo sapiens) | ZNF695 (Homo sapiens) | RNF138 (Homo sapiens) | RXRA (Homo sapiens)
binds: all other assays above

ATGGCGGCAAAATGGCGGCCCCTATAGTGAGTGCTATTA (double strand) [M78]
not listed: TFAP2A (Homo sapiens) | ZNF695 (Homo sapiens) | BCL3 (Homo sapiens)
binds: all other assays above

CGCCATGGCAACAAACGCCATGGCAACCCCTATAGTGAGTGCTATTA (double strand) [M249]
binds: TFAP2A (Homo sapiens) | ZNF416 (Homo sapiens) | ZNF695 (Homo sapiens) | ZNF114 (Homo sapiens) | E2F3 (Homo sapiens)

CTCCCCGAAACTCCCCGCCCTATAGTGAGTGCTATTA (double strand) [M85]
not listed: TFAP2A (Homo sapiens) | ZNF695 (Homo sapiens) | NRF1 (Homo sapiens) | ZCCHC7 (Homo sapiens)
binds: all other assays above

CTTCCGCAAACTTCCGCCCCTATAGTGAGTGCTATTA (double strand) [M70]
not listed: TFAP2A (Homo sapiens) | ZNF695 (Homo sapiens) | BCL3 (Homo sapiens)
binds: all other assays above

GAAACCCCTGGAATATTCCCGACAAAGAAACCCCTGGAATATTCCCGACCCCTATAGTGAGTGCTATTA (double strand) [M59]
binds: PPARG (Homo sapiens) | TFAP2A (Homo sapiens) | GATA4 (Homo sapiens) | ZNF416 (Homo sapiens) | ZNF695 (Homo sapiens) | SCAPER (Homo sapiens) | ZNF114 (Homo sapiens) | E2F3 (Homo sapiens)

GCCACGCCAAAGCCACGCCCCCTATAGTGAGTGCTATTA (double strand) [M89]
not listed: TFAP2A (Homo sapiens) | ZNF695 (Homo sapiens) | NRF1 (Homo sapiens)
binds: all other assays above

GCGTGGAATTTGCGTGGAACCCTATAGTGAGTGCTATTA (double strand) [M448]
not listed: TFAP2A (Homo sapiens) | ZNF695 (Homo sapiens) | BCL3 (Homo sapiens)
binds: all other assays above

GTATCGGAAAAGTATCGGACCCTATAGTGAGTGCTATTA (double strand) [M450]
not listed: TFAP2A (Homo sapiens) | ZNF695 (Homo sapiens) | BCL3 (Homo sapiens)
binds: all other assays above

TCAAGGACGTTTTCAAGGACGCCCTATAGTGAGTGCTATTA (double strand) [M372]
not listed: TFAP2A (Homo sapiens) | ZCCHC7 (Homo sapiens)
binds: all other assays above
